# Source: the supplement of paper PMC11438910
# Some of the results follow. Only a few entries rise above the background.
# What was measured:
# Assay in all cases: fluorescence intensity of antibody binding to polysaccharide-coupled beads; higher = stronger binding
# [1] = molecular target: pneumococcal polysaccharide Pn2
# Procedure: (§1)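 Recombinant rhesus-murine chimeric IgG1 antibodies were tested against antigen-coupled MagPlex beads in a 96-plex Luminex direct immunoassay (dLIA). The beads carried pneumococcal capsular polysaccharides of 93 serotypes plus C-polysaccharides. Antibody was added at 0.1–12,500 ng/mL for 1 h, then PE anti-mouse IgG, and net MFI was read on a Bio-Plex 3D. Only the rhesus variable regions are printed; constant regions are murine IgG1/kappa/lambda, and the signal peptide is MGWSCIILFLVATATGVHS.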
# [2] = molecular target: pneumococcal polysaccharide Pn20A
# Procedure: as §1
# [3] = molecular target: pneumococcal polysaccharide Pn20B
# Procedure: as §1
# [4] = molecular target: pneumococcal polysaccharide Pn21
# Procedure: as §1
# [5] = molecular target: pneumococcal polysaccharide Pn22A
# Procedure: as §1
# [6] = molecular target: pneumococcal polysaccharide Pn22F
# Procedure: as §1
# [7] = molecular target: pneumococcal polysaccharide Pn23A
# Procedure: as §1
# [8] = molecular target: pneumococcal polysaccharide Pn23B
# Procedure: as §1
# [9] = molecular target: pneumococcal polysaccharide Pn23F
# Procedure: as §1
# [10] = molecular target: pneumococcal polysaccharide Pn24A
# Procedure: as §1
# [11] = molecular target: pneumococcal polysaccharide Pn24B
# Procedure: as §1
# [12] = molecular target: pneumococcal polysaccharide Pn24F
# Procedure: as §1
# [13] = molecular target: pneumococcal polysaccharide Pn25A
# Procedure: as §1
# [14] = molecular target: pneumococcal polysaccharide Pn25F
# Procedure: as §1
# [15] = molecular target: pneumococcal polysaccharide Pn27
# Procedure: as §1
# [16] = molecular target: pneumococcal polysaccharide Pn28A
# Procedure: as §1
# [17] = molecular target: pneumococcal polysaccharide Pn28F
# Procedure: as §1
# [18] = molecular target: pneumococcal polysaccharide Pn29
# Procedure: as §1
# [19] = molecular target: pneumococcal polysaccharide Pn3
# Procedure: as §1
# [20] = molecular target: pneumococcal polysaccharide Pn31
# Procedure: as §1
# [21] = molecular target: pneumococcal polysaccharide Pn32A
# Procedure: as §1
# [22] = molecular target: pneumococcal polysaccharide Pn32F
# Procedure: as §1
# [23] = molecular target: pneumococcal polysaccharide Pn33A
# Procedure: as §1
# [24] = molecular target: pneumococcal polysaccharide Pn33B
# Procedure: as §1
# [25] = antibody concentration 2337.65 ng/mL
# [26] = antibody concentration 12500 ng/mL
# [27] = antibody concentration 0.1 ng/mL
# [28] = antibody concentration 0.534724 ng/mL
# [29] = antibody concentration 2.8593 ng/mL
# [30] = antibody concentration 15.2894 ng/mL
# [31] = antibody concentration 81.7561 ng/mL
# [32] = antibody concentration 437.17 ng/mL
binder,measurement,setting,value
4-99.5 (protein) chain 1: QVQLQESGPGLVKPSETLSLTCAVSGYSISSGYYWGWIRQPPGKGLEYIGYISGSSGSPYYNPSLKSRVTISKDTSKNQFSLKLSSATAADTAVYYCARRQVGIGFDYWGQGVLVTVSS chain 2: QAAPTQPPSVSGSPGQSVTISCTGTSSDIGYYNAVSWYQQHPGKAPKLMIYEVSKRPSGVSDRFSGSKSGNTASLTISGLQAEDEADYYCSSYAGSNTYIFGAGTRLTVL,fluorescence intensity,[1]; [25],23.2 MFI
same,fluorescence intensity,[1]; [26],29.2 MFI
same,fluorescence intensity,[2]; [27],24.5 MFI
same,fluorescence intensity,[2]; [28],22.8 MFI
same,fluorescence intensity,[2]; [29],23 MFI
same,fluorescence intensity,[2]; [30],21.5 MFI
same,fluorescence intensity,[2]; [31],23 MFI
same,fluorescence intensity,[2]; [32],24.5 MFI
same,fluorescence intensity,[2]; [25],25.5 MFI
same,fluorescence intensity,[2]; [26],56.8 MFI
same,fluorescence intensity,[3]; [27],26.5 MFI
same,fluorescence intensity,[3]; [28],25 MFI
same,fluorescence intensity,[3]; [29],25 MFI
same,fluorescence intensity,[3]; [30],24 MFI
same,fluorescence intensity,[3]; [31],24 MFI
same,fluorescence intensity,[3]; [32],24.5 MFI
same,fluorescence intensity,[3]; [25],25 MFI
same,fluorescence intensity,[3]; [26],32 MFI
same,fluorescence intensity,[4]; [27],19.2 MFI
same,fluorescence intensity,[4]; [28],20.5 MFI
same,fluorescence intensity,[4]; [29],21 MFI
same,fluorescence intensity,[4]; [30],19.5 MFI
same,fluorescence intensity,[4]; [31],19 MFI
same,fluorescence intensity,[4]; [32],20 MFI
same,fluorescence intensity,[4]; [25],21.5 MFI
same,fluorescence intensity,[4]; [26],23 MFI
same,fluorescence intensity,[5]; [27],21.8 MFI
same,fluorescence intensity,[5]; [28],22.5 MFI
same,fluorescence intensity,[5]; [29],24.5 MFI
same,fluorescence intensity,[5]; [30],22.8 MFI
same,fluorescence intensity,[5]; [31],23 MFI
same,fluorescence intensity,[5]; [32],24.5 MFI
same,fluorescence intensity,[5]; [25],23 MFI
same,fluorescence intensity,[5]; [26],36 MFI
same,fluorescence intensity,[6]; [27],31.2 MFI
same,fluorescence intensity,[6]; [28],32 MFI
same,fluorescence intensity,[6]; [29],33.2 MFI
same,fluorescence intensity,[6]; [30],27.5 MFI
same,fluorescence intensity,[6]; [31],32.2 MFI
same,fluorescence intensity,[6]; [32],33.8 MFI
same,fluorescence intensity,[6]; [25],32.8 MFI
same,fluorescence intensity,[6]; [26],36.8 MFI
same,fluorescence intensity,[7]; [27],24.2 MFI
same,fluorescence intensity,[7]; [28],23.5 MFI
same,fluorescence intensity,[7]; [29],25.5 MFI
same,fluorescence intensity,[7]; [30],23.5 MFI
same,fluorescence intensity,[7]; [31],28 MFI
same,fluorescence intensity,[7]; [32],29 MFI
same,fluorescence intensity,[7]; [25],38.5 MFI
same,fluorescence intensity,[7]; [26],56.5 MFI
same,fluorescence intensity,[8]; [27],32 MFI
same,fluorescence intensity,[8]; [28],31 MFI
same,fluorescence intensity,[8]; [29],28.5 MFI
same,fluorescence intensity,[8]; [30],29.5 MFI
same,fluorescence intensity,[8]; [31],31.5 MFI
same,fluorescence intensity,[8]; [32],30.5 MFI
same,fluorescence intensity,[8]; [25],32.5 MFI
same,fluorescence intensity,[8]; [26],38.5 MFI
same,fluorescence intensity,[9]; [27],19.2 MFI
same,fluorescence intensity,[9]; [28],18.5 MFI
same,fluorescence intensity,[9]; [29],18.8 MFI
same,fluorescence intensity,[9]; [30],18.5 MFI
same,fluorescence intensity,[9]; [31],16.5 MFI
same,fluorescence intensity,[9]; [32],18.8 MFI
same,fluorescence intensity,[9]; [25],21 MFI
same,fluorescence intensity,[9]; [26],25 MFI
same,fluorescence intensity,[10]; [27],16 MFI
same,fluorescence intensity,[10]; [28],15.5 MFI
same,fluorescence intensity,[10]; [29],15.5 MFI
same,fluorescence intensity,[10]; [30],16 MFI
same,fluorescence intensity,[10]; [31],15.5 MFI
same,fluorescence intensity,[10]; [32],16.5 MFI
same,fluorescence intensity,[10]; [25],18 MFI
same,fluorescence intensity,[10]; [26],22 MFI
same,fluorescence intensity,[11]; [27],18.5 MFI
same,fluorescence intensity,[11]; [28],19 MFI
same,fluorescence intensity,[11]; [29],17.5 MFI
same,fluorescence intensity,[11]; [30],17.5 MFI
same,fluorescence intensity,[11]; [31],17.5 MFI
same,fluorescence intensity,[11]; [32],19 MFI
same,fluorescence intensity,[11]; [25],20.2 MFI
same,fluorescence intensity,[11]; [26],34 MFI
same,fluorescence intensity,[12]; [27],15.5 MFI
same,fluorescence intensity,[12]; [28],19 MFI
same,fluorescence intensity,[12]; [29],15 MFI
same,fluorescence intensity,[12]; [30],16.8 MFI
same,fluorescence intensity,[12]; [31],16.5 MFI
same,fluorescence intensity,[12]; [32],17.5 MFI
same,fluorescence intensity,[12]; [25],24 MFI
same,fluorescence intensity,[12]; [26],35.5 MFI
same,fluorescence intensity,[13]; [27],23.8 MFI
same,fluorescence intensity,[13]; [28],25.5 MFI
same,fluorescence intensity,[13]; [29],25 MFI
same,fluorescence intensity,[13]; [30],24.5 MFI
same,fluorescence intensity,[13]; [31],25.5 MFI
same,fluorescence intensity,[13]; [32],25.5 MFI
same,fluorescence intensity,[13]; [25],28.5 MFI
same,fluorescence intensity,[13]; [26],30.5 MFI
same,fluorescence intensity,[14]; [27],31.5 MFI
same,fluorescence intensity,[14]; [28],31.5 MFI
same,fluorescence intensity,[14]; [29],31.5 MFI
same,fluorescence intensity,[14]; [30],32.8 MFI
same,fluorescence intensity,[14]; [31],31 MFI
same,fluorescence intensity,[14]; [32],31.5 MFI
same,fluorescence intensity,[14]; [25],31.5 MFI
same,fluorescence intensity,[14]; [26],37 MFI
same,fluorescence intensity,[15]; [27],17 MFI
same,fluorescence intensity,[15]; [28],16 MFI
same,fluorescence intensity,[15]; [29],17 MFI
same,fluorescence intensity,[15]; [30],17.2 MFI
same,fluorescence intensity,[15]; [31],17.5 MFI
same,fluorescence intensity,[15]; [32],19 MFI
same,fluorescence intensity,[15]; [25],19.5 MFI
same,fluorescence intensity,[15]; [26],42 MFI
same,fluorescence intensity,[16]; [27],27.8 MFI
same,fluorescence intensity,[16]; [28],28 MFI
same,fluorescence intensity,[16]; [29],28.5 MFI
same,fluorescence intensity,[16]; [30],27.2 MFI
same,fluorescence intensity,[16]; [31],28.2 MFI
same,fluorescence intensity,[16]; [32],28.5 MFI
same,fluorescence intensity,[16]; [25],29 MFI
same,fluorescence intensity,[16]; [26],32.8 MFI
same,fluorescence intensity,[17]; [27],29 MFI
same,fluorescence intensity,[17]; [28],29.5 MFI
same,fluorescence intensity,[17]; [29],30.5 MFI
same,fluorescence intensity,[17]; [30],29.8 MFI
same,fluorescence intensity,[17]; [31],30 MFI
same,fluorescence intensity,[17]; [32],31.5 MFI
same,fluorescence intensity,[17]; [25],30.8 MFI
same,fluorescence intensity,[17]; [26],40.8 MFI
same,fluorescence intensity,[18]; [27],16 MFI
same,fluorescence intensity,[18]; [28],17.2 MFI
same,fluorescence intensity,[18]; [29],17 MFI
same,fluorescence intensity,[18]; [30],16.5 MFI
same,fluorescence intensity,[18]; [31],18.2 MFI
same,fluorescence intensity,[18]; [32],17 MFI
same,fluorescence intensity,[18]; [25],19 MFI
same,fluorescence intensity,[18]; [26],31 MFI
same,fluorescence intensity,[19]; [27],14 MFI
same,fluorescence intensity,[19]; [28],18.8 MFI
same,fluorescence intensity,[19]; [29],39 MFI
same,fluorescence intensity,[19]; [30],165 MFI
same,fluorescence intensity,[19]; [31],718 MFI
same,fluorescence intensity,[19]; [32],3200 MFI
same,fluorescence intensity,[19]; [25],11000 MFI
same,fluorescence intensity,[19]; [26],16500 MFI
same,fluorescence intensity,[20]; [27],16 MFI
same,fluorescence intensity,[20]; [28],16 MFI
same,fluorescence intensity,[20]; [29],14.5 MFI
same,fluorescence intensity,[20]; [30],14.5 MFI
same,fluorescence intensity,[20]; [31],14.2 MFI
same,fluorescence intensity,[20]; [32],15 MFI
same,fluorescence intensity,[20]; [25],14.8 MFI
same,fluorescence intensity,[20]; [26],27 MFI
same,fluorescence intensity,[21]; [27],18 MFI
same,fluorescence intensity,[21]; [28],18.2 MFI
same,fluorescence intensity,[21]; [29],18 MFI
same,fluorescence intensity,[21]; [30],19 MFI
same,fluorescence intensity,[21]; [31],19 MFI
same,fluorescence intensity,[21]; [32],18 MFI
same,fluorescence intensity,[21]; [25],20 MFI
same,fluorescence intensity,[21]; [26],29 MFI
same,fluorescence intensity,[22]; [27],28.5 MFI
same,fluorescence intensity,[22]; [28],29.5 MFI
same,fluorescence intensity,[22]; [29],29 MFI
same,fluorescence intensity,[22]; [30],27.5 MFI
same,fluorescence intensity,[22]; [31],30.2 MFI
same,fluorescence intensity,[22]; [32],30 MFI
same,fluorescence intensity,[22]; [25],32 MFI
same,fluorescence intensity,[22]; [26],44.2 MFI
same,fluorescence intensity,[23]; [27],18.5 MFI
same,fluorescence intensity,[23]; [28],18 MFI
same,fluorescence intensity,[23]; [29],17 MFI
same,fluorescence intensity,[23]; [30],17.5 MFI
same,fluorescence intensity,[23]; [31],19 MFI
same,fluorescence intensity,[23]; [32],21 MFI
same,fluorescence intensity,[23]; [25],27.5 MFI
same,fluorescence intensity,[23]; [26],130 MFI
same,fluorescence intensity,[24]; [27],19 MFI
same,fluorescence intensity,[24]; [28],18 MFI
